# Measurements from the supplement of paper PMC8728848.
# Some of the results follow.
# Tests used:
# Assay in all cases: glycan array binding signal (z-score within array); higher = stronger binding
# Conditions in all cases: glycan notation: IUPAC condensed, linker removed
# [1] = target: Gal3S(b1-3)[Fuc(a1-4)]GlcNAc
# Procedure, shortened: (§1)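 Columns mapping to the same glycan were averaged after glycan names were converted to IUPAC-condensed notation. The data come from 3228 arrays in the Consortium for Functional Glycomics database, limited to those with an available protein sequence. Binding is reported as a within-array Z-score averaged across arrays of one protein sequence and across linkers.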
# Gal3S(b1-4)Glc = target: Gal3S(b1-4)Glc
# Procedure, shortened: as §1
# Gal3S(b1-4)Glc6S = target: Gal3S(b1-4)Glc6S
# Procedure, shortened: as §1
# Gal3S(b1-4)GlcNAc = target: Gal3S(b1-4)GlcNAc
# Procedure, shortened: as §1
# Gal3S(b1-4)GlcNAc6S = target: Gal3S(b1-4)GlcNAc6S
# Procedure, shortened: as §1
# [2] = target: Gal3S(b1-4)[Fuc(a1-3)]Glc
# Procedure, shortened: as §1
# [3] = target: Gal3S(b1-4)[Fuc(a1-3)]Glc6S
# Procedure, shortened: as §1
# Gal3S4S(b1-4)GlcNAc = target: Gal3S4S(b1-4)GlcNAc
# Procedure, shortened: as §1
# Gal3S6S(b1-4)GlcNAc = target: Gal3S6S(b1-4)GlcNAc
# Procedure, shortened: as §1
# Gal3S6S(b1-4)GlcNAc6S = target: Gal3S6S(b1-4)GlcNAc6S
# Procedure, shortened: as §1
# Gal4S(b1-4)GlcNAc = target: Gal4S(b1-4)GlcNAc
# Procedure, shortened: as §1
# Gal4S6S(b1-4)GlcNAc = target: Gal4S6S(b1-4)GlcNAc
# Procedure, shortened: as §1
# Gal6S(b1-3)GlcNAc = target: Gal6S(b1-3)GlcNAc
# Procedure, shortened: as §1
# Gal6S(b1-3)GlcNAc6S = target: Gal6S(b1-3)GlcNAc6S
# Procedure, shortened: as §1
# Gal6S(b1-4)Glc = target: Gal6S(b1-4)Glc
# Procedure, shortened: as §1
# Gal6S(b1-4)Glc6S = target: Gal6S(b1-4)Glc6S
# Procedure, shortened: as §1
# Gal6S(b1-4)GlcNAc = target: Gal6S(b1-4)GlcNAc
# Procedure, shortened: as §1
# Gal6S(b1-4)GlcNAc6S = target: Gal6S(b1-4)GlcNAc6S
# Procedure, shortened: as §1
# GalNAc(a1-3)Gal = target: GalNAc(a1-3)Gal
# Procedure, shortened: as §1
# GalNAc(a1-3)GalNAc = target: GalNAc(a1-3)GalNAc
# Procedure, shortened: as §1
# [4] = target: GalNAc(a1-3)GalNAc(b1-3)Gal(a1-4)Gal(b1-4)Glc
# Procedure, shortened: as §1
# [5] = target: GalNAc(a1-3)GalNAc(b1-3)Gal(a1-4)Gal(b1-4)GlcNAc
# Procedure, shortened: as §1
# GalNAc(b1-3)Gal = target: GalNAc(b1-3)Gal
# Procedure, shortened: as §1
# [6] = target: GalNAc(b1-3)Gal(a1-4)Gal(b1-4)GlcNAc
# Procedure, shortened: as §1
# [7] = target: GalNAc(b1-3)Gal(a1-4)Gal(b1-4)GlcNAc(b1-3)Gal(b1-4)Glc
# Procedure, shortened: as §1
# [8] = target: GalNAc(b1-3)Gal(a1-6)Gal(b1-4)Glc
# Procedure, shortened: as §1
# GalNAc(b1-3)GalNAc = target: GalNAc(b1-3)GalNAc
# Procedure, shortened: as §1
# GalNAc(b1-4)Gal(b1-4)Glc = target: GalNAc(b1-4)Gal(b1-4)Glc
# Procedure, shortened: as §1
# GalNAc(b1-4)GlcNAc = target: GalNAc(b1-4)GlcNAc
# Procedure, shortened: as §1
# [9] = target: GalNAc(b1-4)GlcNAc(b1-2)Man(a1-3)[GalNAc(b1-4)GlcNAc(b1-2)Man(a1-6)]Man(b1-4)GlcNAc(b1-4)GlcNAc
# Procedure, shortened: as §1
# GalNAc(b1-6)GalNAc = target: GalNAc(b1-6)GalNAc
# Procedure, shortened: as §1
# Glc(a1-4)Glc = target: Glc(a1-4)Glc
# Procedure, shortened: as §1
# [10] = target: Glc(a1-4)Glc(a1-4)Glc(a1-4)Glc
# Procedure, shortened: as §1
# Glc(a1-6)Glc(a1-6)Glc = target: Glc(a1-6)Glc(a1-6)Glc
# Procedure, shortened: as §1
# [11] = target: Glc(a1-6)Glc(a1-6)Glc(a1-6)Glc
# Procedure, shortened: as §1
# Glc(b1-4)Glc = target: Glc(b1-4)Glc
# Procedure, shortened: as §1
# Glc(b1-6)Glc = target: Glc(b1-6)Glc
# Procedure, shortened: as §1
binder,measurement,setting,value
"MFG-E8 (Homo sapiens), Q08431 (protein) MPRPRLLAALCGALLCAPSLLVALDICSKNPCHNGGLCEEISQEVRGDVFPSYTCTCLKGYAGNHCETKCVEPLGLENGNIANSQIAASSVRVTFLGLQHWVPELARLNRAGMVNAWTPSSNDDNPWIQVNLLRRMWVTGVVTQGASRLASHEYLKAFKVAYSLNGHEFDFIHDVNKKHKEFVGNWNKNAVHVNLFETPVEAQYVRLYPTSCHTACTLRFELLGCELNGCANPLGLKNNSIPDKQITASSSYKTWGLHLFSWNPSYARLDKQGNFNAWVAGSYGNDQWLQVDLGSSKEVTGIITQGARNFGSVQFVASYKVAYSNDSANWTEYQDPRTGSSKIFPGNWDNHSHKKNLFETPILARYVRILPVAWHNRIALRLELLGC",glycan array binding signal (z-score),[1],-0.189
same,glycan array binding signal (z-score),Gal3S(b1-4)Glc,0.294
same,glycan array binding signal (z-score),Gal3S(b1-4)Glc6S,6.38
same,glycan array binding signal (z-score),Gal3S(b1-4)GlcNAc,-0.337
same,glycan array binding signal (z-score),Gal3S(b1-4)GlcNAc6S,1.6
same,glycan array binding signal (z-score),[2],0.12
same,glycan array binding signal (z-score),[3],0.702
same,glycan array binding signal (z-score),Gal3S4S(b1-4)GlcNAc,1.82
same,glycan array binding signal (z-score),Gal3S6S(b1-4)GlcNAc,1.72
same,glycan array binding signal (z-score),Gal3S6S(b1-4)GlcNAc6S,1.81
same,glycan array binding signal (z-score),Gal4S(b1-4)GlcNAc,-0.668
same,glycan array binding signal (z-score),Gal4S6S(b1-4)GlcNAc,1.02
same,glycan array binding signal (z-score),Gal6S(b1-3)GlcNAc,-0.566
same,glycan array binding signal (z-score),Gal6S(b1-3)GlcNAc6S,3.63
same,glycan array binding signal (z-score),Gal6S(b1-4)Glc,-0.25
same,glycan array binding signal (z-score),Gal6S(b1-4)Glc6S,1.06
same,glycan array binding signal (z-score),Gal6S(b1-4)GlcNAc,-0.293
same,glycan array binding signal (z-score),Gal6S(b1-4)GlcNAc6S,1.07
same,glycan array binding signal (z-score),GalNAc(a1-3)Gal,-0.785
same,glycan array binding signal (z-score),GalNAc(a1-3)GalNAc,-0.801
same,glycan array binding signal (z-score),[4],-0.507
same,glycan array binding signal (z-score),[5],0.265
same,glycan array binding signal (z-score),GalNAc(b1-3)Gal,-0.767
same,glycan array binding signal (z-score),[6],-0.764
same,glycan array binding signal (z-score),[7],-0.322
same,glycan array binding signal (z-score),[8],-0.564
same,glycan array binding signal (z-score),GalNAc(b1-3)GalNAc,-0.787
same,glycan array binding signal (z-score),GalNAc(b1-4)Gal(b1-4)Glc,0.155
same,glycan array binding signal (z-score),GalNAc(b1-4)GlcNAc,-0.41
same,glycan array binding signal (z-score),[9],-0.75
same,glycan array binding signal (z-score),GalNAc(b1-6)GalNAc,-0.79
same,glycan array binding signal (z-score),Glc(a1-4)Glc,-0.67
same,glycan array binding signal (z-score),[10],-0.487
same,glycan array binding signal (z-score),Glc(a1-6)Glc(a1-6)Glc,-0.216
same,glycan array binding signal (z-score),[11],-0.668
same,glycan array binding signal (z-score),Glc(b1-4)Glc,-0.729
same,glycan array binding signal (z-score),Glc(b1-6)Glc,-0.467

# Part of the list above, as tab-separated lines:
binder	measurement	setting	value
MFG-E8 (Homo sapiens), Q08431 (protein) MPRPRLLAALCGALLCAPSLLVALDICSKNPCHNGGLCEEISQEVRGDVFPSYTCTCLKGYAGNHCETKCVEPLGLENGNIANSQIAASSVRVTFLGLQHWVPELARLNRAGMVNAWTPSSNDDNPWIQVNLLRRMWVTGVVTQGASRLASHEYLKAFKVAYSLNGHEFDFIHDVNKKHKEFVGNWNKNAVHVNLFETPVEAQYVRLYPTSCHTACTLRFELLGCELNGCANPLGLKNNSIPDKQITASSSYKTWGLHLFSWNPSYARLDKQGNFNAWVAGSYGNDQWLQVDLGSSKEVTGIITQGARNFGSVQFVASYKVAYSNDSANWTEYQDPRTGSSKIFPGNWDNHSHKKNLFETPILARYVRILPVAWHNRIALRLELLGC	glycan array binding signal (z-score)	Gal3S6S(b1-4)GlcNAc	1.72
same	glycan array binding signal (z-score)	Glc(b1-4)Glc	-0.729
